Experimental data published in the supplement of paper PMC8728848.
The other results are listed elsewhere or left out.

How the values were obtained:
Test in all cases: glycan array binding signal (z-score within array); higher = stronger binding
Conditions in all cases: glycan notation: IUPAC condensed, linker removed
[1] = molecular target: Gal(b1-4)GlcNAc(b1-3)Gal(b1-4)GlcNAc(b1-3)GalNAc
In short: (§1)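 The binding signal is a Z-score computed within each array. Data were drawn from 3228 arrays in the Consortium for Functional Glycomics database, restricted to those with a known protein sequence. Scores were averaged over arrays of the same protein sequence at different concentrations or buffers, and over linkers, and negative values can be taken as non-binding.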

[2] = molecular target: Gal(b1-4)GlcNAc(b1-3)Gal(b1-4)GlcNAc(b1-3)[Gal(b1-4)GlcNAc(b1-3)Gal(b1-4)GlcNAc(b1-6)]GalNAc
In short: as §1

[3] = molecular target: Gal(b1-4)GlcNAc(b1-3)Gal(b1-4)GlcNAc(b1-6)[Gal(b1-3)]GalNAc
In short: as §1

[4] = molecular target: Gal(b1-4)GlcNAc(b1-3)Gal(b1-4)[Fuc(a1-3)GlcNAc(b1-6)]Gal(b1-4)Glc
In short: as §1

[5] = molecular target: Gal(b1-4)GlcNAc(b1-3)Gal(b1-4)[Fuc(a1-3)]GlcNAc(b1-3)Gal(b1-4)[Fuc(a1-3)]GlcNAc
In short: as §1

[6] = molecular target: Gal(b1-4)GlcNAc(b1-3)GalNAc
In short: as §1

[7] = molecular target: Gal(b1-4)GlcNAc(b1-3)[Fuc(a1-3)GlcNAc(b1-6)]Gal(b1-4)Glc
In short: as §1

[8] = molecular target: Gal(b1-4)GlcNAc(b1-3)[Gal(b1-4)GlcNAc(b1-6)]Gal(b1-4)GlcNAc
In short: as §1

[9] = molecular target: Gal(b1-4)GlcNAc(b1-3)[Gal(b1-4)GlcNAc(b1-6)]GalNAc
In short: as §1

[10] = molecular target: Gal(b1-4)GlcNAc(b1-3)[GlcNAc(b1-6)]Gal(b1-4)GlcNAc
In short: as §1

[11] = molecular target: Gal(b1-4)GlcNAc(b1-6)Gal(b1-4)GlcNAc
In short: as §1

[12] = molecular target: Gal(b1-4)GlcNAc(b1-6)GalNAc
In short: as §1

[13] = molecular target: Gal(b1-4)GlcNAc(b1-6)[Gal(b1-3)]GalNAc
In short: as §1

[14] = molecular target: Gal(b1-4)GlcNAc(b1-6)[Gal(b1-4)GlcNAc(b1-3)]GalNAc
In short: as §1

Gal(b1-4)GlcNAc6P = molecular target: Gal(b1-4)GlcNAc6P
In short: as §1

Gal(b1-6)Gal = molecular target: Gal(b1-6)Gal
In short: as §1

Gal3S(b1-3)GalNAc = molecular target: Gal3S(b1-3)GalNAc
In short: as §1

Gal3S(b1-3)GlcNAc = molecular target: Gal3S(b1-3)GlcNAc
In short: as §1

[15] = molecular target: Gal3S(b1-3)[Fuc(a1-4)]GlcNAc
In short: as §1

Gal3S(b1-4)Glc = molecular target: Gal3S(b1-4)Glc
In short: as §1

Gal3S(b1-4)Glc6S = molecular target: Gal3S(b1-4)Glc6S
In short: as §1

Gal3S(b1-4)GlcNAc = molecular target: Gal3S(b1-4)GlcNAc
In short: as §1

Gal3S(b1-4)GlcNAc6S = molecular target: Gal3S(b1-4)GlcNAc6S
In short: as §1

B1: Gal 12 (Homo sapiens), Q96DT0 (protein)
chain: MSQPSGGRAPGTRIYSWSCPTVMSPGEKLDPIPDSFILQPPVFHPVVPYVTTIFGGLHAGKMVMLQGVVPLDAHRFQVDFQCGCSLCPRPDIAFHFNPRFHTTKPHVICNTLHGGRWQREARWPHLALRRGSSFLILFLFGNEEVKVSVNGQHFLHFRYRLPLSHVDTLGIFGDILVEAVGFLNINPFVEGSREYPAGHPFLLMSPRLEVPCSHALPQGLSPGQVIIVRGLVLQEPKHFTVSLRDQAAHAPVTLRASFADRTLAWISRWGQKKLISAPFLFYPQRFFEVLLLFQEGGLKLALNGQGLGATSMNQQALEQLRELRISGSVQLYCVHS
glycan array binding signal (z-score) [1]: -0.447 | glycan array binding signal (z-score) [2]: -0.119 | glycan array binding signal (z-score) [3]: 0.615 | glycan array binding signal (z-score) [4]: -0.022 | glycan array binding signal (z-score) [5]: 0.012 | glycan array binding signal (z-score) [6]: 0.295 | glycan array binding signal (z-score) [7]: 0.537 | glycan array binding signal (z-score) [8]: 0.824 | glycan array binding signal (z-score) [9]: -0.352 | glycan array binding signal (z-score) [10]: -1.11 | glycan array binding signal (z-score) [11]: -0.725 | glycan array binding signal (z-score) [12]: 0.417 | glycan array binding signal (z-score) [13]: 0.131 | glycan array binding signal (z-score) [14]: 0.954 | glycan array binding signal (z-score) (Gal(b1-4)GlcNAc6P): 0.272 | glycan array binding signal (z-score) (Gal(b1-6)Gal): 0.159 | glycan array binding signal (z-score) (Gal3S(b1-3)GalNAc): -0.01 | glycan array binding signal (z-score) (Gal3S(b1-3)GlcNAc): -0.005 | glycan array binding signal (z-score) [15]: 0.343 | glycan array binding signal (z-score) (Gal3S(b1-4)Glc): 0.451 | glycan array binding signal (z-score) (Gal3S(b1-4)Glc6S): 0.539 | glycan array binding signal (z-score) (Gal3S(b1-4)GlcNAc): -0.335 | glycan array binding signal (z-score) (Gal3S(b1-4)GlcNAc6S): -0.56
